Measurements reported in the supplement of paper PMC10849652.
This is one part of the list.

Sequences of proteins named here, by UniProt entry; tags and fusion partners are left off. A change or cut given only in a name is not applied to a line headed by its entry.
UniProt Q9BS26: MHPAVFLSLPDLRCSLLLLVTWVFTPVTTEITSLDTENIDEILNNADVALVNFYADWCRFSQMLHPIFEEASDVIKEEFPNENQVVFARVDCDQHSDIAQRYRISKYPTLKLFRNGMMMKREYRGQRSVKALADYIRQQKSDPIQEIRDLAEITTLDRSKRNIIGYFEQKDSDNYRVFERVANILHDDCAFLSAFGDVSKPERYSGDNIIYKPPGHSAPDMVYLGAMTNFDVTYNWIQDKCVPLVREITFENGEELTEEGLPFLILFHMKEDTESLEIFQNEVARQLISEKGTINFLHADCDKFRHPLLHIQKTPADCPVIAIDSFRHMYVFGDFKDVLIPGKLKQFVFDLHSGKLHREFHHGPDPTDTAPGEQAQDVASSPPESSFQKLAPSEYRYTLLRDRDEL
UniProt O60645: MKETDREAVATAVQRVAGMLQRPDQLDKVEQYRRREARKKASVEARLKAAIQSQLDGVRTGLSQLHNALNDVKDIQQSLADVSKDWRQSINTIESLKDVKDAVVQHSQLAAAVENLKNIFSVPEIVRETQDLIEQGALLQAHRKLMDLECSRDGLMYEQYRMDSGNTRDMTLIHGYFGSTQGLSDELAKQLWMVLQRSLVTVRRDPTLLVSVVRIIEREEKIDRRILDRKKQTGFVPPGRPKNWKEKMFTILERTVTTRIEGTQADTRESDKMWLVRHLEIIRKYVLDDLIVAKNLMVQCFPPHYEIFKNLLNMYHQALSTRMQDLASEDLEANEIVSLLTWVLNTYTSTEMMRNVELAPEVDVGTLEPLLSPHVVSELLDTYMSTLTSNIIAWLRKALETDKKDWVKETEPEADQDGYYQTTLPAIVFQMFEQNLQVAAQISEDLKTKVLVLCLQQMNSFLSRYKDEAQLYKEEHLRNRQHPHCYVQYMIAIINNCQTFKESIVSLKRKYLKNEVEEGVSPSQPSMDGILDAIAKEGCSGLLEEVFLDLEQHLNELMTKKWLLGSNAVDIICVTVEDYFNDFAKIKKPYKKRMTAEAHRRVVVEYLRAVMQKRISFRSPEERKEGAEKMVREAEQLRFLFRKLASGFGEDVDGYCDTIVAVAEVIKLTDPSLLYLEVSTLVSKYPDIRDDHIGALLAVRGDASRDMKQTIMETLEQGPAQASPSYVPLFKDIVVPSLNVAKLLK
UniProt A0FGR8: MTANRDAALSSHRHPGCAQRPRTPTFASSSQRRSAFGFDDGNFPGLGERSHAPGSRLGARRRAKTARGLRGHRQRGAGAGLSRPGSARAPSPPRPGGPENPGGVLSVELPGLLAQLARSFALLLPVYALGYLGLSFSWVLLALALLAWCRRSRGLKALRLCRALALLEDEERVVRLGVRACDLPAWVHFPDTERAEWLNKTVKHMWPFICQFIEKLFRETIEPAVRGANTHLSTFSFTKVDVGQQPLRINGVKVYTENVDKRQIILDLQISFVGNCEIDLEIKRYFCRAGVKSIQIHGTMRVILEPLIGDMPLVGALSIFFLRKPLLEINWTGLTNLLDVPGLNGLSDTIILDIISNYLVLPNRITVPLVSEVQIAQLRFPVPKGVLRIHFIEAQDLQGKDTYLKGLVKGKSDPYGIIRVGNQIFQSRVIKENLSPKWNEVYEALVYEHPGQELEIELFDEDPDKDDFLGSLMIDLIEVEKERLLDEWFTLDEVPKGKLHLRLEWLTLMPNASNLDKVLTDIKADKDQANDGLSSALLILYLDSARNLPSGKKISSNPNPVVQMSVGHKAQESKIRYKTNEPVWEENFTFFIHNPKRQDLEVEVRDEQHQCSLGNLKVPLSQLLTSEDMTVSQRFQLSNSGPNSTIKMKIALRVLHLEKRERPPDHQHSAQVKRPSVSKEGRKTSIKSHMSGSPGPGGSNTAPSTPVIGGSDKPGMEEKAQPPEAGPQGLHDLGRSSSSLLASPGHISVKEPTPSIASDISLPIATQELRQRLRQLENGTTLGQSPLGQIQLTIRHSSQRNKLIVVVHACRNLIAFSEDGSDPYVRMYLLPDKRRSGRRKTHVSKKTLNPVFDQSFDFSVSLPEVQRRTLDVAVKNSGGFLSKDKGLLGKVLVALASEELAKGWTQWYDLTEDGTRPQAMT
UniProt P28715: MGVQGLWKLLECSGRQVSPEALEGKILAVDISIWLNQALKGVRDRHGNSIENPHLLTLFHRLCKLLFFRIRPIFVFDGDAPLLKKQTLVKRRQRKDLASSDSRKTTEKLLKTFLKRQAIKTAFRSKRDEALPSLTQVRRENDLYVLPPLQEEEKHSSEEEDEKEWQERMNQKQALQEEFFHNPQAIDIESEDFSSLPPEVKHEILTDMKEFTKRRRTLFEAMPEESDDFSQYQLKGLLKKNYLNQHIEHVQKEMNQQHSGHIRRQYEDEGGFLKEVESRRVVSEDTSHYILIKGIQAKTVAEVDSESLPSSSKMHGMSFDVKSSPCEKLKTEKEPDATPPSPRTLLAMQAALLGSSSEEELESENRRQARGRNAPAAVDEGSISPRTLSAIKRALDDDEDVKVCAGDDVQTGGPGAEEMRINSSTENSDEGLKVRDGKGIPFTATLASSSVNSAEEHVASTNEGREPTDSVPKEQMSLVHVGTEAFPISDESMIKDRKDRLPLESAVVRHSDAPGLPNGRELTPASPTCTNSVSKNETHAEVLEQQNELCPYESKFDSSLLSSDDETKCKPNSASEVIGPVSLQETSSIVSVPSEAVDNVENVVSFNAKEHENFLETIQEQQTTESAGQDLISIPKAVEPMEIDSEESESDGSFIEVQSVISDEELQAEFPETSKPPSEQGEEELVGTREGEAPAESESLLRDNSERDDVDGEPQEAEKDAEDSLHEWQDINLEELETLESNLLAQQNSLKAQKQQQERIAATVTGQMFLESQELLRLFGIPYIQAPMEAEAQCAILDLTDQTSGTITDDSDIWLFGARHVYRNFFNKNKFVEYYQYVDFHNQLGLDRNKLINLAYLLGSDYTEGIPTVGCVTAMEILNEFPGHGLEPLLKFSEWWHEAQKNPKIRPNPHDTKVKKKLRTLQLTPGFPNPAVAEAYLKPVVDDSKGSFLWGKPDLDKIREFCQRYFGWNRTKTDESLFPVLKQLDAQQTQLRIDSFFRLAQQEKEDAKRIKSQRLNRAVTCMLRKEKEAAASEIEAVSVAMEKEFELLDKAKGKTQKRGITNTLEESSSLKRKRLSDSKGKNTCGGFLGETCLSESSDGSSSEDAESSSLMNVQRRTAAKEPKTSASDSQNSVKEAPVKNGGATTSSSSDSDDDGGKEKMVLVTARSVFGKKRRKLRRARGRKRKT
UniProt Q9UBC2: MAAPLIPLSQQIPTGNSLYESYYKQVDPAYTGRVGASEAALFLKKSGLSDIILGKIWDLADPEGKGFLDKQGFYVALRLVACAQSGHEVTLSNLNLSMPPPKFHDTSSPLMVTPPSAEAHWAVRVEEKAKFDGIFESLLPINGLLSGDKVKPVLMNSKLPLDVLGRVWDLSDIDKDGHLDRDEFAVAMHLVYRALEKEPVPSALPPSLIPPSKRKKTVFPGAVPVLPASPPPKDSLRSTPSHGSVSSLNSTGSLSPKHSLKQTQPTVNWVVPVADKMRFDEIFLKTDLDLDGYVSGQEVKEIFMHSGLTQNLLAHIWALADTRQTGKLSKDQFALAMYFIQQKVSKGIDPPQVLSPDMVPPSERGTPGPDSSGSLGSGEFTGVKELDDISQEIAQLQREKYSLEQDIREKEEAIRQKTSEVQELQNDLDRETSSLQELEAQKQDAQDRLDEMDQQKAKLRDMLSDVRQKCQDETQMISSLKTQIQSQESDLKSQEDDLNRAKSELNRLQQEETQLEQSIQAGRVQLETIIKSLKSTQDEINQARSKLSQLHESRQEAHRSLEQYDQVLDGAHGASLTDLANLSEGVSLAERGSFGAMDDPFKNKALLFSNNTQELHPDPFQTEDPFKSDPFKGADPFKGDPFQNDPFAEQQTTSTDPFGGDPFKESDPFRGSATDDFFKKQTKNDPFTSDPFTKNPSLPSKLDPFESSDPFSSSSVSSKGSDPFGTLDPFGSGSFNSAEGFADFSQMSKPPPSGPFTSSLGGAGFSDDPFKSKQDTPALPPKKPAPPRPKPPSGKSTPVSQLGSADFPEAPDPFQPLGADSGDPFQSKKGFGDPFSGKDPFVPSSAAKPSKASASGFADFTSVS
UniProt Q9Y6I3: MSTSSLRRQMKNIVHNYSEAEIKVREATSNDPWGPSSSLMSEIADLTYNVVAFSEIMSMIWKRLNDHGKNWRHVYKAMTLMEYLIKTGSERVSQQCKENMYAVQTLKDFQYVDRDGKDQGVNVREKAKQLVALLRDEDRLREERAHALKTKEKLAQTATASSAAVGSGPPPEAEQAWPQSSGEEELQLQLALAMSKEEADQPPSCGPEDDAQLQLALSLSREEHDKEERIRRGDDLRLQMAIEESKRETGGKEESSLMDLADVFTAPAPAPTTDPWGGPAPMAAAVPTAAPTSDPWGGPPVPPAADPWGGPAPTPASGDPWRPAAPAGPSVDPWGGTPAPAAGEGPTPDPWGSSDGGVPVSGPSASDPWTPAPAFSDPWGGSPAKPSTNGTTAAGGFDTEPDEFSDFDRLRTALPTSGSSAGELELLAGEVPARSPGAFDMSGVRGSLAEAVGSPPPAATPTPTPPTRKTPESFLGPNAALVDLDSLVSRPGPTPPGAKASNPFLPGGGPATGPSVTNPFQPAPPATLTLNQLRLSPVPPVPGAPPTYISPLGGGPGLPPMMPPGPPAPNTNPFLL
UniProt Q96GK7: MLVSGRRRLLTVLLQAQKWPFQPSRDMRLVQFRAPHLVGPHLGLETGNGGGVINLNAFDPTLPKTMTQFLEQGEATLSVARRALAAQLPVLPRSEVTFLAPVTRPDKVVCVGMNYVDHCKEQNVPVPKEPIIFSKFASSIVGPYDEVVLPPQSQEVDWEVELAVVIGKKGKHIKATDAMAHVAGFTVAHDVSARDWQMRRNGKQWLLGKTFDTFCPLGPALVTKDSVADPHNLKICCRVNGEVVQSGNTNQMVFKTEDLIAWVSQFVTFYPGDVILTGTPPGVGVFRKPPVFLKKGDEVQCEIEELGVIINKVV
UniProt P42566: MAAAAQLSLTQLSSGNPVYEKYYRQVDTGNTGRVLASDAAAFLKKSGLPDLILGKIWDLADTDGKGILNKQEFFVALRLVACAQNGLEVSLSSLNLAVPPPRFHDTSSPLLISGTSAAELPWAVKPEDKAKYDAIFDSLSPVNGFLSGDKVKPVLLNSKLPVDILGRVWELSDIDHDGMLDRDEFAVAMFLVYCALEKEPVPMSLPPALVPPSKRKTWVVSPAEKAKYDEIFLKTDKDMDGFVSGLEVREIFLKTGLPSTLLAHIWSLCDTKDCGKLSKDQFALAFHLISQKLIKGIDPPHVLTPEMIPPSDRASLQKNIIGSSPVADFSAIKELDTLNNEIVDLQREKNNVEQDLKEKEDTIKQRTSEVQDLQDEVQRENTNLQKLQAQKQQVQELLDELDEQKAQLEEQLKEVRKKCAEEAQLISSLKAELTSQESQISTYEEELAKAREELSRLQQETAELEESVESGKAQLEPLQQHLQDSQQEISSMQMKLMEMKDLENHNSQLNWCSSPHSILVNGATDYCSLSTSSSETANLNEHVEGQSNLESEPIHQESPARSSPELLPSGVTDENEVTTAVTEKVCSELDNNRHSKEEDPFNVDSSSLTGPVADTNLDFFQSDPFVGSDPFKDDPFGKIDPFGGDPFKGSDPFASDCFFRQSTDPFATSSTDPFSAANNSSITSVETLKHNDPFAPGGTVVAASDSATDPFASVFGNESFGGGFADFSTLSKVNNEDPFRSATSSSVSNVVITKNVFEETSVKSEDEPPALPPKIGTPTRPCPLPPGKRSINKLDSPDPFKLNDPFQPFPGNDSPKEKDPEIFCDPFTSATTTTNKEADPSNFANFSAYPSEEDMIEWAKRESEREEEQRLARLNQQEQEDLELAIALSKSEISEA
UniProt P16422: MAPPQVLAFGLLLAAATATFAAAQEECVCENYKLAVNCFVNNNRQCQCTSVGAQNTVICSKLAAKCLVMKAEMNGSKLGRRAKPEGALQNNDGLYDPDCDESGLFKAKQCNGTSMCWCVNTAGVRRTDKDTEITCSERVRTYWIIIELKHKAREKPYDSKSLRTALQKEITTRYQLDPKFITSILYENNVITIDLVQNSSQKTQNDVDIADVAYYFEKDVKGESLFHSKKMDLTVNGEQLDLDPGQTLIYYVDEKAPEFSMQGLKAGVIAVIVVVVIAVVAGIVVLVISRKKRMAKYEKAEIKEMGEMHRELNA
UniProt Q96RQ1: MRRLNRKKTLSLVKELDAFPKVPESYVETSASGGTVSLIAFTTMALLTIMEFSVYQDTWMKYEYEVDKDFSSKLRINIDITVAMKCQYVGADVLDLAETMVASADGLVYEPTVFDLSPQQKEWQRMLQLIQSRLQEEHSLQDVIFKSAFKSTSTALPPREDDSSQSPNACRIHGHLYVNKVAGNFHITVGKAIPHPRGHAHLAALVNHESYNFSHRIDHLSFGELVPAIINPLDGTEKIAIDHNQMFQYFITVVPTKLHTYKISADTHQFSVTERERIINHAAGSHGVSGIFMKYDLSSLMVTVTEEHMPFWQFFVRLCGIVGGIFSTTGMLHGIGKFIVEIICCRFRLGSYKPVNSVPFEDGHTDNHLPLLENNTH

Tests used:
Test in all cases: log2 fold change, soluble protein after heating vs DMSO (PISA); higher = thermal stabilisation; K562 cells, 10 uM, 30 min; active = over 0.2 and 3.5 SD of the protein, either way, in both replicates (recomputed)
[1] = compound: CC[C@@H]1C(=O)N(C)c2cnc(Nc3ccc(C(=O)NC4CCN(C)CC4)cc3OC)nc2N1C1CCCC1
Outline: (§1)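 Thermal stability values are relative to control samples and come from duplicates. They are expressed as log2 fold changes. For measurement, K562 cells (2×10^6 cells/mL) received 10 μM compound for 30 min, and aliquots were heated for 3 min over 48°C-58°C, pooled, and extracted at 4°C in PBS with 0.5% NP-40. Soluble protein, the supernatant after 21,000xg for 90 min, was quantified by TMTpro 16plex LC-MS/MS with equalised channel sums.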

volasertib = compound: CC[C@@H]1C(=O)N(C)c2cnc(Nc3ccc(C(=O)N[C@H]4CC[C@H](N5CCN(CC6CC6)CC5)CC4)cc3OC)nc2N1C(C)C [volasertib]
Outline: as §1

[2] = compound: CC[C@H](C)N1C=C(C2=C(C=C(C=C21)C3=CN=C(C=C3)N4CCNCC4)C(=O)NCC5=C(C=C(NC5=O)C)C)C
Outline: as §1

epoxomicin = compound: CC[C@H](C)[C@@H](C(=O)N[C@@H]([C@@H](C)O)C(=O)N[C@@H](CC(C)C)C(=O)[C@]1(CO1)C)NC(=O)[C@H]([C@@H](C)CC)N(C)C(=O)C [epoxomicin]
Outline: as §1

[3] = compound: CCn1c(C(=O)N(C2CC2)C2CC2)cc2c3c(ncn3C)c(Nc3cc(C)n(C)n3)nc21
Outline: as §1

[4] = compound: CCn1cc(-c2ccnc3[nH]c(-c4cccc(CN(C)C)c4)cc23)c(-c2ccc(NC(=O)N(C)C)cc2)n1
Outline: as §1

[5] = compound: CN(C)CC(=O)Nc1ccc2[nH]c(=O)c3ccccc3c2c1
Outline: as §1

rosiglitazone = compound: CN(CCOC1=CC=C(C=C1)C[C@H]2C(=O)NC(=O)S2)C3=CC=CC=N3 (racemic) [rosiglitazone]
Outline: as §1

[6] = compound: CN1C2=C(C3=C1C(=O)N(N=C3)CC4=CC(=CC=C4)N)SC(=C2)S(=O)C
Outline: as §1

[7] = compound: CN1CCC(CNc2ccc3ncc(-c4cccc(OC(F)(F)F)c4)n3n2)CC1
Outline: as §1

saracatinib = compound: CN1CCN(CCOc2cc(OC3CCOCC3)c3c(Nc4c(Cl)ccc5c4OCO5)ncnc3c2)CC1 [saracatinib]
Outline: as §1

sotrastaurin = compound: CN1CCN(c2nc(C3=C(c4c[nH]c5ccccc45)C(=O)NC3=O)c3ccccc3n2)CC1 [sotrastaurin]
Outline: as §1

alvocidib = compound: CN1CC[C@H](c2c(O)cc(O)c3c(=O)cc(-c4ccccc4Cl)oc23)[C@H](O)C1 [alvocidib]
Outline: as §1

Tubastatin A = compound: CN1CCc2c(c3ccccc3n2Cc2ccc(C(=O)NO)cc2)C1 [Tubastatin A]
Outline: as §1

[8] = compound: CNC(=O)C1=CC=CC=C1NC2=NC(=NC=C2Cl)NC3=C(C=C(C=C3)N4CCOCC4)OC
Outline: as §1

defactinib = compound: CNC(=O)c1ccc(Nc2ncc(C(F)(F)F)c(NCc3nccnc3N(C)S(C)(=O)=O)n2)cc1 [defactinib]
Outline: as §1

rucaparib = compound: CNCc1ccc(-c2[nH]c3cc(F)cc4c3c2CCNC4=O)cc1 [rucaparib]
Outline: as §1

[9] = compound: CNc1nc(-c2ccc3c(N)n[nH]c3c2)cc(N2C[C@@H](C(=O)NC3CCCCC3)CC[C@H]2C)n1
Outline: as §1

encorafenib = compound: COC(=O)N[C@@H](C)CNc1nccc(-c2cn(C(C)C)nc2-c2cc(Cl)cc(NS(C)(=O)=O)c2F)n1 [encorafenib]
Outline: as §1

[10] = compound: COC(=O)[C@H](CCSC)NC(=O)C1=C(C=C(C=C1)NC[C@H](CS)N)C2=CC=CC=C2
Outline: as §1

Measured: log2 fold change

ERP44 (UniProt Q9BS26)
inactive: [1] -0.018 | volasertib -0.005 | [2] 0.006 | epoxomicin 0.045 | [3] 0.003 | [4] -0.006 | [5] -0.037 | rosiglitazone -0.012 | [6] -0.004 | [7] 0.122 | saracatinib -0.04 | sotrastaurin 0.011 | alvocidib -0.009 | Tubastatin A 0.005 | [8] 0.066 | defactinib 0.002 | rucaparib 0.01 | [9] -0.022 | encorafenib -0.012 | [10] 0.007

ERCC4 (UniProt Q92889)
inactive: [1] 0.102 | volasertib -0.179 | [2] -0.264 | epoxomicin 0.004 | [3] -0.086 | [4] 0.014 | [5] -0.039 | rosiglitazone 0.138 | [6] -0.085 | [7] -0.027 | saracatinib -0.123 | sotrastaurin 0.191 | alvocidib 0.179 | Tubastatin A 0.086 | [8] -0.029 | defactinib 0.171 | rucaparib -0.276 | [9] -0.02 | encorafenib 0.006 | [10] -0.063

ESD (UniProt P10768)
inactive: [1] -0.016 | volasertib 0.061 | [2] -0.014 | epoxomicin -0.009 | [3] -0.011 | [4] 0.022 | [5] -0.009 | rosiglitazone 0.003 | [6] -0.052 | [7] 0.002 | saracatinib -0.011 | sotrastaurin 0.047 | alvocidib 0.003 | Tubastatin A 0.039 | [8] 0.091 | defactinib 0 | rucaparib -0.072 | [9] -0.033 | encorafenib -0.006 | [10] -0.001

EXOC3 (UniProt O60645)
inactive: [1] -0.109 | volasertib -0.293 | [2] 0.122 | epoxomicin -0.052 | [3] -0.108 | [4] 0.003 | [5] 0.041 | rosiglitazone 0.076 | [6] 0.088 | [7] -0.321 | saracatinib -0.104 | sotrastaurin -0.137 | alvocidib -0.051 | Tubastatin A 0.002 | [8] 0.05 | defactinib -0.058 | rucaparib 0.152 | [9] -0.064 | encorafenib 0.062 | [10] -0.01

ESYT2 isoform 2 (UniProt A0FGR8)
inactive: [1] -0.015 | volasertib -0.17 | [2] 0.049 | epoxomicin 0.019 | [3] -0.046 | [4] -0.005 | [5] 0.026 | rosiglitazone 0.019 | [6] -0.026 | [7] -0.085 | saracatinib 0.007 | sotrastaurin 0.05 | alvocidib -0.03 | Tubastatin A -0.002 | [8] 0.005 | defactinib -0.087 | rucaparib -0.009 | [9] -0.03 | encorafenib 0.032 | [10] 0.003

ERCC5 (UniProt P28715)
inactive: [1] -0.156 | volasertib -0.126 | [2] 0.052 | epoxomicin -0.054 | [3] -0.096 | [4] -0.032 | [5] -0.035 | rosiglitazone 0.16 | [6] -0.15 | [7] 0.044 | saracatinib -0.015 | sotrastaurin 0.087 | alvocidib -0.038 | Tubastatin A -0.004 | [8] 0.038 | defactinib -0.068 | rucaparib -0.048 | [9] -0.018 | encorafenib 0.046 | [10] 0.006

EPS15L1 isoform 2 (UniProt Q9UBC2)
inactive: [1] -0.111 | volasertib -0.175 | [2] 0.032 | epoxomicin 0.027 | [3] 0.007 | [4] 0.025 | [5] -0.024 | rosiglitazone 0.034 | [6] -0.012 | [7] -0.012 | saracatinib 0.023 | sotrastaurin -0.05 | alvocidib 0.05 | Tubastatin A 0.014 | [8] 0.085 | defactinib 0.003 | rucaparib -0.003 | [9] -0.114 | encorafenib 0.011 | [10] 0.019

ETNPPL (UniProt Q8TBG4)
inactive: [1] -0.013 | volasertib 0.123 | [2] -0.099 | epoxomicin -0.263 | [3] 0.125 | [4] 0.148 | [5] -0.207 | rosiglitazone 0.116 | [6] 0.15 | [7] 0.098 | saracatinib 0.098 | sotrastaurin 0.33 | alvocidib 0.021 | Tubastatin A -0.081 | [8] 0.102 | defactinib 0 | rucaparib -0.185 | [9] -0.096 | encorafenib -0.025 | [10] 0.172

EPN1 (UniProt Q9Y6I3)
inactive: [1] -0.023 | volasertib -0.151 | [2] 0.094 | epoxomicin -0.021 | [3] -0.019 | [4] -0.036 | [5] 0.039 | rosiglitazone 0.003 | [6] -0.032 | [7] -0.124 | saracatinib 0.033 | sotrastaurin -0.025 | alvocidib -0.06 | Tubastatin A -0.009 | [8] -0.035 | defactinib -0.081 | rucaparib -0.014 | [9] -0.014 | encorafenib 0.052 | [10] 0.036

FAHD2A (UniProt Q96GK7)
inactive: [1] 0.05 | volasertib 0.064 | [2] -0.001 | epoxomicin 0.015 | [3] 0.023 | [4] -0.016 | [5] 0.005 | rosiglitazone 0.006 | [6] -0.046 | [7] -0.004 | saracatinib 0.047 | sotrastaurin 0.019 | alvocidib -0.004 | Tubastatin A 0.011 | [8] 0.015 | defactinib -0.04 | rucaparib -0.024 | [9] -0.026 | encorafenib -0.017 | [10] -0.006

F2 (UniProt P00734)
inactive: [1] 0.066 | volasertib 0.062 | [2] -0.026 | epoxomicin -0.225 | [3] 0.149 | [4] -0.214 | [5] -0.041 | rosiglitazone 0.086 | [6] 0.148 | [7] 0.117 | saracatinib -0.03 | sotrastaurin 0.332 | alvocidib 0.064 | Tubastatin A -0.071 | [8] 0.007 | defactinib -0.031 | rucaparib -0.011 | [9] -0.044 | encorafenib -0.042 | [10] 0.176

Two neighbouring records from above, quoted:
EPS15L1 isoform 2 (UniProt Q9UBC2)
inactive: [1] -0.111 | volasertib -0.175 | [2] 0.032 | epoxomicin 0.027 | [3] 0.007 | [4] 0.025 | [5] -0.024 | rosiglitazone 0.034 | [6] -0.012 | [7] -0.012 | saracatinib 0.023 | sotrastaurin -0.05 | alvocidib 0.05 | Tubastatin A 0.014 | [8] 0.085 | defactinib 0.003 | rucaparib -0.003 | [9] -0.114 | encorafenib 0.011 | [10] 0.019

ETNPPL (UniProt Q8TBG4)
inactive: [1] -0.013 | volasertib 0.123 | [2] -0.099 | epoxomicin -0.263 | [3] 0.125 | [4] 0.148 | [5] -0.207 | rosiglitazone 0.116 | [6] 0.15 | [7] 0.098 | saracatinib 0.098 | sotrastaurin 0.33 | alvocidib 0.021 | Tubastatin A -0.081 | [8] 0.102 | defactinib 0 | rucaparib -0.185 | [9] -0.096 | encorafenib -0.025 | [10] 0.172

(listing goes on)

EPS15 (UniProt P42566)
inactive: [1] -0.062 | volasertib -0.214 | [2] 0.046 | epoxomicin 0.031 | [3] -0.004 | [4] -0.062 | [5] 0.004 | rosiglitazone 0.037 | [6] 0.016 | [7] -0.02 | saracatinib 0.041 | sotrastaurin -0.032 | alvocidib 0.03 | Tubastatin A -0.002 | [8] 0.075 | defactinib -0.009 | rucaparib 0.003 | [9] -0.072 | encorafenib 0.053 | [10] -0.011

ERP29 (UniProt P30040)
inactive: [1] -0.016 | volasertib 0.074 | [2] 0.03 | epoxomicin 0.053 | [3] 0.04 | [4] -0.029 | [5] -0.017 | rosiglitazone -0.016 | [6] -0.017 | [7] 0.083 | saracatinib -0.023 | sotrastaurin 0.006 | alvocidib -0.026 | Tubastatin A 0.012 | [8] 0.016 | defactinib 0.003 | rucaparib 0.035 | [9] -0.007 | encorafenib 0.006 | [10] -0.001

EZR (UniProt P15311)
inactive: [1] 0.01 | volasertib 0.021 | [2] 0.012 | epoxomicin 0 | [3] 0.003 | [4] -0.049 | [5] -0.015 | rosiglitazone 0.012 | [6] -0.085 | [7] 0.112 | saracatinib 0.035 | sotrastaurin 0.043 | alvocidib -0.04 | Tubastatin A -0.033 | [8] 0.036 | defactinib 0.007 | rucaparib -0.03 | [9] -0.02 | encorafenib -0.037 | [10] 0.005

EPCAM (UniProt P16422)
inactive: [1] -0.018 | volasertib -0.014 | [2] 0.048 | epoxomicin -0.04 | [3] -0.023 | [4] -0.101 | [5] 0.002 | rosiglitazone 0.002 | [6] -0.078 | [7] -0.05 | saracatinib 0.042 | sotrastaurin -0.006 | alvocidib -0.064 | Tubastatin A 0.025 | [8] -0.01 | defactinib -0.112 | rucaparib -0.001 | [9] 0.006 | encorafenib 0.003 | [10] 0.024

ERGIC2 (UniProt Q96RQ1)
inactive: [1] -0.041 | volasertib -0.021 | [2] 0.026 | epoxomicin -0.017 | [3] -0.006 | [4] -0.012 | [5] 0.029 | rosiglitazone 0.034 | [6] -0.067 | [7] -0.054 | saracatinib 0.089 | sotrastaurin -0.011 | alvocidib -0.052 | Tubastatin A -0.054 | [8] 0.009 | defactinib -0.04 | rucaparib -0.089 | [9] 0.042 | encorafenib 0.049 | [10] -0.069
